Values from PubChem BioAssay AID504764 (Drosophila RNAi Screening Center, 2011)
Aim: 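Knock-downs that raise or lower a Notch target reporter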 (primary screen). Cells: Drosophila Kc167 cells. Reagent: long dsRNA against Drosophila genes. Timing: about 5 days (4 days dsRNA, then 24 h after transfection). Challenge: transfection of constitutively active membrane-tethered Notch lacking the extracellular domain, read 24 h later. Read-out: 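Firefly luciferase from an E(spl)m3 reporter with active Notch, plus control-promoter and uninduced reporter wells for normalisation; unnormalised counts, duplicate wells a and b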. Direction: induced reporter light, run 1, well a and induced reporter light, run 1, well b: higher = more light from the Notch target reporter with active Notch; control promoter light, run 1, well a and control promoter light, run 1, well b: higher = more light from the viral control promoter (cell number, transfection, viability); uninduced reporter light, run 1, well a: higher = more light from the Notch target reporter without active Notch. Active means: 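Hit if the duplicate-averaged log2 ratio of induced to control-promoter light gives a plate-wise z beyond ±2, or induced to uninduced beyond ±1.8; weak-control or discordant-duplicate wells dropped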. Calls: active = modifier hit (raised or lowered Notch signal); inactive = not a hit.
In all, the deposit lists about 22,000 reagents; shown is a random part of those with a known target gene and a result. Over the whole deposit, 403 (1.9%) are marked active. 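Unnormalised raw counts per well; ratio z-scores behind the hit calls and whether each hit raises or lowers signal are not deposited.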 Not stated in the record: the amount of reagent.

CG2608 (GeneID 35323) [DRSC02709]: induced reporter light, run 1, well a = 1.39e5; induced reporter light, run 1, well b = 1.40e5; control promoter light, run 1, well a = 1.07e5; control promoter light, run 1, well b = 1.16e5; uninduced reporter light, run 1, well a = 13185; Call = inactive
CG5023 (GeneID 42400) [DRSC15697]: induced reporter light, run 1, well a = 1.92e5; induced reporter light, run 1, well b = 1.65e5; control promoter light, run 1, well a = 2.08e5; control promoter light, run 1, well b = 2.08e5; uninduced reporter light, run 1, well a = 12680; Call = inactive
CG33268 (GeneID 2768979) [DRSC10143]: induced reporter light, run 1, well a = 1.77e5; induced reporter light, run 1, well b = 1.44e5; control promoter light, run 1, well a = 2.50e5; control promoter light, run 1, well b = 1.99e5; uninduced reporter light, run 1, well a = 9605; Call = inactive
CG30419 (GeneID 37879) [DRSC04208]: induced reporter light, run 1, well a = 1.89e5; induced reporter light, run 1, well b = 1.68e5; control promoter light, run 1, well a = 2.20e5; control promoter light, run 1, well b = 2.04e5; uninduced reporter light, run 1, well a = 15765; Call = inactive
CG30419 (GeneID 37879) [DRSC04209]: induced reporter light, run 1, well a = 1.72e5; induced reporter light, run 1, well b = 1.26e5; control promoter light, run 1, well a = 1.30e5; control promoter light, run 1, well b = 1.27e5; uninduced reporter light, run 1, well a = 9635; Call = inactive
CG30419 (GeneID 37879) [DRSC22519]: Call = inactive
CG43127 (GeneID 8673982) [DRSC09039]: induced reporter light, run 1, well a = 1.92e5; induced reporter light, run 1, well b = 1.87e5; control promoter light, run 1, well a = 1.70e5; control promoter light, run 1, well b = 1.66e5; uninduced reporter light, run 1, well a = 14100; Call = inactive
Grip (GeneID 50391) [DRSC17940]: induced reporter light, run 1, well a = 23725; induced reporter light, run 1, well b = 19295; control promoter light, run 1, well a = 16235; control promoter light, run 1, well b = 19620; uninduced reporter light, run 1, well a = 6690; Call = inactive
Grip (GeneID 50391) [DRSC18395]: induced reporter light, run 1, well a = 1.45e5; induced reporter light, run 1, well b = 1.70e5; control promoter light, run 1, well a = 3.35e5; control promoter light, run 1, well b = 3.68e5; uninduced reporter light, run 1, well a = 11885; Call = inactive
RhoBTB (GeneID 40249) [DRSC11877]: induced reporter light, run 1, well a = 78775; induced reporter light, run 1, well b = 82260; control promoter light, run 1, well a = 63950; control promoter light, run 1, well b = 85360; uninduced reporter light, run 1, well a = 6785; Call = inactive
Scm (GeneID 41168) [DRSC16853]: induced reporter light, run 1, well a = 93305; induced reporter light, run 1, well b = 97980; control promoter light, run 1, well a = 88410; control promoter light, run 1, well b = 56685; uninduced reporter light, run 1, well a = 4480; Call = inactive
Lk6 (GeneID 44672) [DRSC12867]: induced reporter light, run 1, well a = 1.55e5; induced reporter light, run 1, well b = 1.63e5; control promoter light, run 1, well a = 1.26e5; control promoter light, run 1, well b = 1.33e5; uninduced reporter light, run 1, well a = 15025; Call = inactive
Lk6 (GeneID 44672) [DRSC16728]: induced reporter light, run 1, well a = 1.60e5; induced reporter light, run 1, well b = 1.88e5; control promoter light, run 1, well a = 1.09e5; control promoter light, run 1, well b = 87200; uninduced reporter light, run 1, well a = 11285; Call = inactive

2 entries from above, ordered by “uninduced reporter light, run 1, well a”, high to low:
Grip (GeneID 50391) [DRSC18395]: induced reporter light, run 1, well a = 1.45e5; induced reporter light, run 1, well b = 1.70e5; control promoter light, run 1, well a = 3.35e5; control promoter light, run 1, well b = 3.68e5; uninduced reporter light, run 1, well a = 11885; Call = inactive
RhoBTB (GeneID 40249) [DRSC11877]: induced reporter light, run 1, well a = 78775; induced reporter light, run 1, well b = 82260; control promoter light, run 1, well a = 63950; control promoter light, run 1, well b = 85360; uninduced reporter light, run 1, well a = 6785; Call = inactive
